Test results published in patent publication US20250304621A1, “POLYPEPTIDE FOR SPECIFICALLY BLOCKING BINDING OF ACVR1C TO GREM1 AND USE THEREOF” (The Seventh Affiliated Hospital, Sun Yat-Sen University, priority 2024, published 2025).

Molecular target: T1, ACVR1C (activin receptor type-1C) (human) (UniProt Q8NER5)
T1 sequence (looked up): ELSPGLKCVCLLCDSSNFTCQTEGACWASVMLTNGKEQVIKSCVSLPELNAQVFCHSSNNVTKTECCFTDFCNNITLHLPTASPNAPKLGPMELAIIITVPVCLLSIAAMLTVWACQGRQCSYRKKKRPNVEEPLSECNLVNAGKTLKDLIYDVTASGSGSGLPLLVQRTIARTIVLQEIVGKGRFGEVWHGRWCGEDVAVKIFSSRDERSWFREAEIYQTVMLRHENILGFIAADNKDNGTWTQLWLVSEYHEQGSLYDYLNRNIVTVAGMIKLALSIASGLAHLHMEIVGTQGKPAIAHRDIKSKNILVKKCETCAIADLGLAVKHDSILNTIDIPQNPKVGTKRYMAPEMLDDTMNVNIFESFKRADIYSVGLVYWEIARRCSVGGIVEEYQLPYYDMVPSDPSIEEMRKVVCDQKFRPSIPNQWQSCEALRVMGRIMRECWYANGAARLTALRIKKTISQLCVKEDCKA
Assay: anti-HA pull-down from HCT116 cells, band identified by mass spectrometry

binding: binds
B1: Ha-tagged GREM1 (ligand, not shown: small tags and cut ends)
chain: KKKGSQGAIPPPDKAQHNDSEQTQSPQQPGSRNRGRGQGRGTAMPGEEVLESSQEALHVTERKYLKRDWCKTQPLKQTIHEEGCNSRTIINRFCYGQCNSFYIPRHIRKEEGSFQSCSFCKPKKFTTMMVTLNCPELQPPTKKKRVTRVKQCRCISIDLD

These are yes or no findings as the source states them, for the method shown. In cells and extracts the contact can be indirect. These calls come from enrichment with a bait or labelling near it, and not all partners need be listed. Sequences can lack the tags named with a protein.
